Earlier results in patent publication US7060295B2, “Formulations for the prevention and treatment of insulin resistance and type 2 diabetes mellitus” (ChronoRX LLC, priority 2000, dated 2006).
Some of these results come from one statement about several compounds together.

Details: UKPDS

insulin
initial decrease in HbA1c: 1.5 to 2.0 percentage points

CN(C)C(=N)N=C(N)N [Metformin, metformin]
initial decrease in HbA1c: 1.5 to 2.0 percentage points
